Experimental data from paper PMC4594037.
No constants are given. Whether binding was seen depends on the method and setting. In cells and extracts the contact can be indirect. Some results given as binding are weak or reduced against the parent protein; the word gives no strength.

Chains of the proteins cited; added tags and fusions are not shown.
UniProt Q62048: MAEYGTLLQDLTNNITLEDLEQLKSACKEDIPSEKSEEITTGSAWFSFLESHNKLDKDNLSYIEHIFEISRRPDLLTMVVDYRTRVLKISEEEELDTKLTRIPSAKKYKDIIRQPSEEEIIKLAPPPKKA
UniProt Q63844: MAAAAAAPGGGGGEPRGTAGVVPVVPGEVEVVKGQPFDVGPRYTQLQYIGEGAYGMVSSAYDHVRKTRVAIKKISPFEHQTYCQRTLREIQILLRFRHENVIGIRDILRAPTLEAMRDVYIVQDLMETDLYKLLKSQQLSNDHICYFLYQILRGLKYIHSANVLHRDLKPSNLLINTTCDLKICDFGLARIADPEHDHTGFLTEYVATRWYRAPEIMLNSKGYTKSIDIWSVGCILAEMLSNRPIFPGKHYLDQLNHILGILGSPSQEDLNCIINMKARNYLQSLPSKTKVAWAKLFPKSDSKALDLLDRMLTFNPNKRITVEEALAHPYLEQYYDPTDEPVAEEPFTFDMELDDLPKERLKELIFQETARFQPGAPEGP
UniProt P63085: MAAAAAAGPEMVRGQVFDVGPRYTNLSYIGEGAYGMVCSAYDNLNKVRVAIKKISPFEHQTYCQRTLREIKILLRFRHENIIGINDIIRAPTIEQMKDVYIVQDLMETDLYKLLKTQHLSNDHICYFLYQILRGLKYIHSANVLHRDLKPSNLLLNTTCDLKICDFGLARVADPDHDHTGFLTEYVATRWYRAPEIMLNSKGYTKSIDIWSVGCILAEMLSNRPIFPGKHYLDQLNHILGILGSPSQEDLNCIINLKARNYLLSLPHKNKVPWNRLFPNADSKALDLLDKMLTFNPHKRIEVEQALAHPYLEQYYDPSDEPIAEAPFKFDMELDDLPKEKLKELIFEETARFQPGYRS
UniProt P18654: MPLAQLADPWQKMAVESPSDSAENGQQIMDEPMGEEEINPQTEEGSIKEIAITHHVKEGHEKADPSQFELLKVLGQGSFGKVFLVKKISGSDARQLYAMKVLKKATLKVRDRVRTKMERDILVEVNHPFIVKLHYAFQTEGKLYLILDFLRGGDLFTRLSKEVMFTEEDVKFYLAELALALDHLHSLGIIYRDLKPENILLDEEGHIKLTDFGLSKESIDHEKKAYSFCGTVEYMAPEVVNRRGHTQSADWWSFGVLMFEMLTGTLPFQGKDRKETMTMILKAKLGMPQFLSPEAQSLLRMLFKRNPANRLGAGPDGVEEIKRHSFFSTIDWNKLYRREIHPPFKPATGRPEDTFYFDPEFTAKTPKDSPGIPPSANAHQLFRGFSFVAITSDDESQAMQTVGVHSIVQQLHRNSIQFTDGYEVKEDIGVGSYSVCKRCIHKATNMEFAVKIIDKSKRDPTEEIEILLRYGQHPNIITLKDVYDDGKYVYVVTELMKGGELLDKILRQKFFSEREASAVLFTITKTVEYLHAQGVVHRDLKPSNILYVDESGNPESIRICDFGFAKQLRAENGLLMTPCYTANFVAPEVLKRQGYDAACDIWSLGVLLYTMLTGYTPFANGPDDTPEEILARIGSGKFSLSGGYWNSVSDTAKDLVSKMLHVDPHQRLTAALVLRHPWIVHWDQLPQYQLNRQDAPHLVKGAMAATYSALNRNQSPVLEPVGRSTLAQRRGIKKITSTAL

Molecular target: PEA15 (mouse (endogenous in cortical neurons)) (UniProt Q62048)
Assay: co-IP; endogenous PEA15 immunoprecipitated from lysates of 3 DIV mouse cortical neurons, untreated or treated 15 min with 100 ng/mL BDNF; 500 ug total protein; lysis buffer 50 mM Hepes, 3 mM EGTA, 3 mM CaCl2, 3 mM MgCl2, 80 mM KCl, 0.1% Triton X-100, 0.1% sodium deoxycholate; blots with anti-PLD1, anti-RSK2, anti-ERK1/2

Molecule	binding
ERK1 (from UniProt Q63844 1-380) (enzyme)	binds
ERK2 (from UniProt P63085 1-358) (enzyme)	binds
RSK2 (from UniProt P18654 1-740) (enzyme)	binds
PLD1 (enzyme, UniProt Q9Z280 1-1074) MSLKSETRVNTSTLQKIAADMSNLIENLDTRELHFEGEEVEYDASPGDPKAQEGCIPFSSIYNTQGFKEPNIQTYLSGCPIKAQVLEVERFTSTSRVPSINLYTIELTHGEFTWQVKRKFKHFQEFHRELLKYKAFIRIPIPTKRHTFRRQNVKEEPREMPSLPRSSENAIQEEQFFGRRKQLEDYLTKILKMPMYRNYHATTEFLDVSQLSFIHDLGPKGLEGMIMKRSGGHRIPGVNCCGHGRACYRWSKRWLIVKDSFLLYMKPDSGAIAFVLLVDKEFRVKVGRKETETKYGLRIDNLSRTLILKCNSYRHARWWGGAIEEFIRKHGADFLKDHRFGSYAALHENTLAKWYVNAKGYFEDIANAMEEASEEIFITDWWLSPEIFLKRPVVEGNRWRLDCILKRKAQQGVRIFIMLYKEVELALGINSEYSKRTLMRLHPNIKVMRHPDHVSSSVYLWAHHEKLVIIDQSVAFVGGIDLAYGRWDDNEHRLTDVGSVKRVTSGLSLGSLTAASVESMESLSLKDKHEFHKKEPISKIVDETDMKLKGIGKSRKFSKFSLYRQLHRHHLHNADSISSIDSTSSYFSHCRSHQNLIHGLKPHLKLFHPSSESEQGLTRHSTDTGSIRSVQTGVGELHGETRFWHGKDYCNFVFKDWVQLDKPFADFIDRYSTPRMPWHDIGSVVHGKAARDVARHFIQRWNFTKIMKPKYRSLSYPFLLPKSQATAHELRYQVPGAVPAKVQLLRSAADWSAGIKHHEESIHAAYIHVIENSKHYIYIENQFFISCADDKVVFNKVGDRIAQRILKAHREGQRYRVYIVIPLLPGFEGDISTGGGNALQAIMHFNYRTMCRGESSILEQLKPELGNKWINYISFCGLRTHAELEGNLVTELIYVHSKLLIADDNTVIIGSANINDRSMLGKRDSEMAVIVQDTETVPSVMDGKEYQAGRFARDLRLECFRLVLGYLSDPSEDLQDPVSDKFFKEIWVSTAARNATIYDKVFRCLPNDEVHNLIQLRDFINKPILAKEDALRAEEELRKIRGFLVQFPLYFLSEENLLPSVGTKEAIVPMEVWT	binds
